# Library screening results

Source: ChEMBL document CHEMBL3988442, “University of Dundee, Small-Polar-MMV Screening Library” (2021).

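Viability assay of Plasmodium falciparum sporozoites; the read-out is not stated. The concentration is filed as 10 mM, unlikely as a test dose, so the dose is not known. Direction is inferred from retests: higher values go with lower viability. Strong results were mostly tested again. Of about 34,000 compounds tested this way, about 280 (0.84%) reached 50% or more in at least one test.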

Results are given as percent effect. How 0% and 100% were set is not recorded. Most values in the screen are low, and negative values occur. The compounds are a random part of those screened.

- COCCC(=O)N1CC[C@@H](N(C)C)[C@@H]1Cc1ccccc1 : -9.112%
- CCC(CC)NC(=O)c1cccnc1N1CCCC1c1ccccn1 (stereo not shown) : -9.137%
- CN1CCN(C2COC3(CCN(Cc4ccsc4)CC3)C2)CC1.O=C(O)C(F)(F)F.O=C(O)C(F)(F)F (stereo not shown) : 14.18%
- CNC(=O)c1cccc(NCCOc2ccc(CC#N)cc2)c1C : -12.43%
- CNC(=O)C1(C)CCCN1Cc1cnn(C)c1C (stereo not shown) : -2.56%
- C[C@@H]1CN(C2CCOC2)C[C@]12CCN(Cc1cccnc1)C2=O.O=C(O)C(F)(F)F.O=C(O)C(F)(F)F (stereo partly shown) : -0.08518%
- CN1CC(=O)N(c2ccccc2)CC12CCN(CCO)C2.O=C(O)C(F)(F)F.O=C(O)C(F)(F)F (stereo not shown) : 4.579%
- CCNC(c1cccnc1)c1ccc(F)cc1F (stereo not shown) : 4.635%
- O=C(c1ccncc1)N1CC[C@@H](O)[C@@H](O)[C@H](N2CCC(F)(F)CC2)C1 : 4.397%
- [H][C@]12CN(C(=O)c3cccnc3)C[C@@]1([H])C(=O)N(CCN1CCCC1)C2 : 4.855%
- COCCN1CCC(CNC(=O)C2(c3ccccc3)CCOCC2)C1 (stereo not shown) : 2.521%
- O=C(NCCO)c1ccn(-c2ccc3ccccn23)n1 : 0.5593%
- CSc1c[nH]nc1NS(=O)(=O)c1cc(F)ccc1Cl : 0.9858%
- Cc1ccc(CNCC2CNc3cc(C)nn3C2)cn1 (stereo not shown) : 7.977%
- O=C(NC1CCc2nccn2C1)c1ccc(OCC2CC2)nc1 (stereo not shown) : -0.7684%
- Cc1csc2c(N3CCNC(C(=O)NCc4cccnc4)C3)ncnc12 (stereo not shown) : -1.692%
- Cc1cnn(CC2CCCN2C(=O)c2ccc3nnc(C)n3c2)c1 (stereo not shown) : -22.22%
- CCc1noc(CN2CCN(C(=O)COC)CC2)n1 : 6.277%
- O=c1[nH]c2ccc(S(=O)(=O)N(CCO)Cc3ccncc3)cc2[nH]1 : 1.091%
- COCc1nnc(NC(=O)CN2C(=O)c3ccccc3NC2C(C)C)s1 (stereo not shown) : -16.21%
- CC(C)c1ncc2c(n1)CN(Cc1noc(-c3ccccc3)n1)CC2 : 13.57%
- Cc1cnc(-c2nc(C3CCN(Cc4ccccc4Cl)CC3)no2)cn1 : -0.259%
- O=C(CCCN1CCOC1=O)Nc1cnn(-c2ccccc2Cl)c1 : 13.09%
- COCCOc1ccccc1CNCC1COC2(CCCC2)O1 (stereo not shown) : -5.861%
- CN(C)CCNC(=O)Cc1cccc(I)c1 : -3.429%
- CCc1nccn1C1CCCN(C(=O)c2ccc(C(=O)NC)nc2)C1 (stereo not shown) : -13.25%
- O=C(NCCCN1CCCC1)c1n[nH]c(=O)c2ccccc12 : 2.126%
- CCn1cnnc1CCNCc1c[nH]nc1-c1ccc(F)cc1 : 1.643%